According to PubChem BioAssay AID1347076 (National Center for Advancing Translational Sciences (NCATS), 2019):
Among all 400,000 compounds or so, about 13,000 (3.2%) were called active. The inconclusive results got no clear call from the source; some entries with a clear call stand among them for comparison. Calls come from the whole dose curve; as a rule, active = well fitted cell-killing curve with a large enough effect; inconclusive = small, poorly fitted or top-dose-only effect, or effect the other way; inactive = flat fitted curve, though single readings scatter. Potencies beside an inconclusive call are fits to weak or partial responses and may not hold up.

Experiment: qHTS assay for MDR1-selective chemotherapeutics: Primary screen using the drug-selected MDR subline cells KB-V1; note: nearly all actives have a fitted effect of over 60% in size
Details: KB-V1 MDR cells viability, CellTiter-Glo, 72 h; series mostly up to 46.1 µM
Summary of the method: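 Compound-treated KB-V1 multidrug-resistant cells, 72 h, 37 degrees C; viability by CellTiter-Glo. Fitted qHTS curves give the values.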
Potency is the fitted concentration of half-maximal effect.

| SMILES | Potency |
| --- | --- |
| CC(C)(C)NC(=O)c1ccc(COc2ccc(Cl)cc2Cl)o1 | active: 13 µM |
| O=NN(CCCl)C(=O)NCCCl | inactive |
| Cc1cc(C)c2nc(SCc3ccc([N+](=O)[O-])cc3)nc(C)c2c1 | inconclusive: 2.91 µM [cytotoxic, full curve, poor fit] |
| CC(C)COP(=O)(c1ccc(N(C)C)cc1)C(Nc1ccccc1)c1ccccc1 (centres undefined) | inconclusive: 8.2 µM [cytotoxic, partial curve] |
| Cc1ccc(NC(=S)N(CCCN2CCOCC2)Cc2ccccn2)cc1 | inconclusive: 9.2 µM [cytotoxic, partial curve] |
| CCn1c(/C=C/c2c(C)n(CC)c3ccccc23)nc2ccccc2c1=O | active: 1.64 µM |
| COc1ccc(OC)c(C2CC(=O)c3c([nH]c(C(=O)OCC4CCCCC4)c3C)C2)c1 (centres undefined) | inactive |
| C#CCOC(=O)Nc1cccn(Cc2c(Cl)cccc2Cl)c1=O | inconclusive: 2.06 µM [cytotoxic, partial curve, poor fit] |
| Cc1cc(OCC(=O)Nc2cnn(CCCC(=O)O)c2)ccc1[N+](=O)[O-] | inconclusive: 2.91 µM [rising, full curve] |
| COc1ccc(NC(=O)C(c2ccc(C(F)(F)F)cc2)n2c(=O)c(-c3cc4ccccc4[nH]3)nc3ccccc32)cc1 (centres undefined) | inactive |
| Cc1nc(CC(=O)c2c(C)cc(O)cc2O)cs1 | active: 20.6 µM |
| COc1ccc(NC(=S)N2CCC(N(C)CC3CCCO3)CC2)cc1Cl (centres undefined) | inconclusive: 23.1 µM [cytotoxic, partial curve] |
| Cc1cccc(CCn2c(=O)c3ccccc3n(Cc3cccc(F)c3)c2=O)c1 | inactive |
| COc1ccc(C2NC(Cc3ccccc3)(C(=O)O)C3C(=O)N(c4ccccc4OC)C(=O)C23)cc1 (centres undefined) | inconclusive: 9.2 µM [rising, partial curve, poor fit] |
| COc1ccccc1-c1nc(SCC(=O)N(C)c2ccccc2)c2c(=O)n(C)c(=O)n(C)c2n1 | inconclusive: 20.6 µM [cytotoxic, single point] |
| O=C(CSCCc1ccccn1)Nc1ccccn1 | inactive |
| Cc1csc2nc(COC(=O)COc3ccccc3F)cc(=O)n12 | inactive |
| CC(=O)c1cccc(NC(=O)CCS(=O)(=O)c2cc(Br)cc3c2N(C(=O)C2CC2)CC3)c1 | inactive |
| CCOc1nc(-c2ccc(OC)cc2)ccc1-c1noc(C)n1 | inconclusive: 4.11 µM [cytotoxic, partial curve] |
| O=C(COC(=O)C1CCC1)Nc1cc(S(=O)(=O)N2CCCCC2)ccc1Cl | inactive |
| COCCN(CCOC)Cc1cc(=O)oc2cc(C)ccc12 | inactive |
| CCOc1ccc(S(=O)(=O)Nc2ccc3oc(C)c(C(=O)OCCOC)c3c2)cc1 | inconclusive: 4.11 µM [cytotoxic, full curve] |
| COc1ccc(NC(=O)CC2C(=O)N(c3ccc(Cl)cc3)C(=S)N2NC(=O)c2cccc(F)c2)cc1 (centres undefined) | inconclusive: 8.2 µM [cytotoxic, partial curve] |
| CCc1nnc(NC(=O)Cc2cc(OC)c(OC)c(OC)c2)s1 | inconclusive: 16.4 µM [cytotoxic, partial curve, poor fit] |
| O=C(Cc1ccc(NC(=O)N2CCSc3ncccc32)cc1)NCc1ccccc1Cl | inconclusive: 29.1 µM [cytotoxic, single point] |

Two successive compounds out of the list so far, quoted:

| SMILES | Potency |
| --- | --- |
| COc1ccccc1-c1nc(SCC(=O)N(C)c2ccccc2)c2c(=O)n(C)c(=O)n(C)c2n1 | inconclusive: 20.6 µM [cytotoxic, single point] |
| O=C(CSCCc1ccccn1)Nc1ccccn1 | inactive |

Additional compounds follow.

| SMILES | Potency |
| --- | --- |
| FC(F)(F)c1nc2ccccc2n2c(-c3ccc(Cl)cc3Cl)nnc12 | inconclusive: 16.4 µM [cytotoxic, single point] |
| Oc1ccc(N=Nc2nc(-c3ccccc3)c(-c3ccccc3)[nH]2)cc1 | inconclusive: 29.1 µM [cytotoxic, single point] |
| C/C=C/CSc1nc2c(c(=O)[nH]c(=O)n2C)n1CCC | inconclusive: 23.1 µM [cytotoxic, single point] |
| COC(=O)c1ccc(NC(=O)C2CC(=O)OC2c2ccccc2)cc1 (centres undefined) | inactive |
| Cc1ccc(N(Cc2ccccc2)C(=O)CSC(C)C(=O)Nc2cc(C)on2)cc1 (centres undefined) | inconclusive: 29.1 µM [cytotoxic, single point] |
| COc1ccc(NC(=O)c2c(C)nn(Cc3ccccc3)c2Cl)cc1S(=O)(=O)N1CCOCC1 | inactive |
| CNc1nc(-c2ccc3c(c2)CCN3C(=O)c2ccccc2F)cs1 | inconclusive: 23.1 µM [cytotoxic, single point] |
| O=C(Nc1cccc(C(F)(F)F)c1)Oc1ccc(Cl)c2cccnc12 | inactive |
| C=CCNC(=S)NNC(=O)COc1ccc2cc(Br)ccc2c1 | inconclusive: 29.1 µM [cytotoxic, single point] |
| CCCCNC(=O)CSc1nc2ccc(Nc3nc(N4CCOCC4)nc(N4CCOCC4)n3)cc2s1 | inactive |
| NC(=O)COC(=O)c1c2c(nc3ccccc13)CCCCC2 | inconclusive: 20.6 µM [rising, single point] |
| OC(c1ccc(F)cc1)c1nc(-c2ccc(Cl)cc2)cs1 (centres undefined) | inactive |
| CCCc1c(C)c2cc(C)ccc2[nH]c1=O | active: 4.11 µM |
| O=C1CC(C(=O)N(c2ccc(F)cc2)C(C(=O)NC2CCCC2)c2ccccn2)CS1 (centres undefined) | active: 11.6 µM |
| Cc1cc(Cl)ccc1OCC(=O)Nc1ccccc1C(=O)N1CCOCC1 | inconclusive: 29.1 µM [cytotoxic, single point] |
| CC(/C=C/c1ccco1)=N\NC(=O)COc1ccc(C)c(C)c1 | inactive |
| O=C(COc1ccc(Br)cc1Cl)c1ccc[nH]1 | inconclusive: 29.1 µM [cytotoxic, single point] |
| CN(Cc1cc(Cl)cc(Cl)c1O)Cc1c(O)ccc2ccccc12 | inactive |
| CC(=O)Nc1ccc(C=NN=C2c3ccccc3-c3ccccc32)cc1 | active: 18.4 µM |
| COc1cccc(NC(=O)c2cc([N+](=O)[O-])ccc2NCc2cccnc2)c1 | active: 3.66 µM |
| COc1ccc(Nc2nc(N3CCOCC3)nc(N3CCOCC3)n2)cc1 | inactive |
| CCn1c(=O)c(C(=O)CN2CC(C)OC(C)C2)c(N)n(Cc2ccccc2)c1=O (centres undefined) | inactive |
| CC(NC(=O)/C(C#N)=C/c1ccc(N2CCOCC2)cc1)c1ccccc1 (centres undefined) | inactive |
| COc1ccc(Cl)c(-c2cc(C(=O)Nc3ccc(C)c(NS(C)(=O)=O)c3)[nH]n2)c1 | inactive |
